Results: PMC4888081
No constants are given. Whether binding was seen depends on the method and setting. Binding seen in cells or lysates may run through a third protein. Some results given as binding are weak or reduced against the parent protein; the word gives no strength. Sequences can lack the tags named with a protein.

Chains of the proteins cited; added tags and fusions are not shown.
UniProt P59178: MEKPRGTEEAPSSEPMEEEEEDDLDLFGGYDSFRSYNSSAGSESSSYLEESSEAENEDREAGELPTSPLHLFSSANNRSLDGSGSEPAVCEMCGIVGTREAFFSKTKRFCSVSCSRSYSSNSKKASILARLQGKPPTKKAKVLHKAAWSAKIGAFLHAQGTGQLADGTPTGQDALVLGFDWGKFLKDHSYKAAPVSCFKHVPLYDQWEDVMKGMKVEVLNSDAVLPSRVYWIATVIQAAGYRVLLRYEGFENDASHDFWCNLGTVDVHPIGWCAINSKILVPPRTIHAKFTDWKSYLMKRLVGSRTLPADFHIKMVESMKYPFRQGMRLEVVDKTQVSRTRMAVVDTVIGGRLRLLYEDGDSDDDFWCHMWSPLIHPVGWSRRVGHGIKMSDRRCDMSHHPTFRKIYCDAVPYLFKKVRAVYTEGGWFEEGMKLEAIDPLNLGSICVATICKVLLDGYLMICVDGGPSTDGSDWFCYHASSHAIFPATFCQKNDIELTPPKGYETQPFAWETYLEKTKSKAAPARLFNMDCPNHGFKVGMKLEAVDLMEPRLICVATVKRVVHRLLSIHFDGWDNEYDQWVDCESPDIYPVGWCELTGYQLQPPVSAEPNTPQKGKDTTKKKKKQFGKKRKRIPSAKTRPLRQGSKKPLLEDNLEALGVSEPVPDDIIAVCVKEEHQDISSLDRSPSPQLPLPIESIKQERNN
UniProt Q9CQJ4: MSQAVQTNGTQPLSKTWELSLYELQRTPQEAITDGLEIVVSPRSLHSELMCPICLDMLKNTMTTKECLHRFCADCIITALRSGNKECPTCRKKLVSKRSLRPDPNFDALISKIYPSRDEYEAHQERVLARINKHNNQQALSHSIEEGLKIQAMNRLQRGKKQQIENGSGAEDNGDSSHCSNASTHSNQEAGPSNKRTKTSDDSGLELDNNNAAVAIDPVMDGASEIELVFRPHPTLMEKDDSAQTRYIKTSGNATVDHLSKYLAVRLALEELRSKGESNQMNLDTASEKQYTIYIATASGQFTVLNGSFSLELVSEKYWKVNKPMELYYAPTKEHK

Biological target: T1, HA-Pcgf6 (polycomb group ring finger 6) (UniProt Q99NA9)
T1 sequence: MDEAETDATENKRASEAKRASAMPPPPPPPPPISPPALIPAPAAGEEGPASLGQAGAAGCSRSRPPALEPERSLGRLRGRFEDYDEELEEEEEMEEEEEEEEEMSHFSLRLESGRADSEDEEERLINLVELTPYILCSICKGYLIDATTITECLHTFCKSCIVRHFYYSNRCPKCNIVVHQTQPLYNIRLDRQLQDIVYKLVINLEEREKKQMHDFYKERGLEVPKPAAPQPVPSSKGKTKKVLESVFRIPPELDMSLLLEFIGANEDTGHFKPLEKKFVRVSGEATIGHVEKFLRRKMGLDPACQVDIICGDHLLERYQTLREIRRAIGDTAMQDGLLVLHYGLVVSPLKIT
Assay: co-IP; co-immunoprecipitation with Pcgf6 (Figure S4A,B); details not in the main text

| binding | Substance |
| --- | --- |
| binds | L3mbtl2 (from UniProt P59178 1-703) |
| binds | Rnf2 (from UniProt Q9CQJ4 1-336) |
